Experimental data published in PMC12826058.

Molecular target: T1, His6-AdiY (Escherichia coli K-12 MG1655) (UniProt P33234)
T1 sequence (looked up): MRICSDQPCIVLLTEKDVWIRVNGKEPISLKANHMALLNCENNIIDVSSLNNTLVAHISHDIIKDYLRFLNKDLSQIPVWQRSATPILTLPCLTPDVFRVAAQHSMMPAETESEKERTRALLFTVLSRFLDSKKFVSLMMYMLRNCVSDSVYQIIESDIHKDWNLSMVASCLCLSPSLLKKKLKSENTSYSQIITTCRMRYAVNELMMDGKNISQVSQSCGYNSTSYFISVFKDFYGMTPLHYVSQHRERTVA
Assay: SPR
Conditions: pH 6.5, phosphate; SPR (Biacore T200, SA chip), 25 C, 50 mM sodium phosphate pH 6.0-7.0 (50 mM citrate at pH 5.5 and 5.8), 250 mM NaCl, 2% glycerol, 2 mM DTT, 0.005% P20; 1:1 Langmuir fit; recombinant protein; residues 1-253; protein details: N-terminal His6; label: biotin (5' of reverse primer); probe letters rebuilt from the primers and the genome

Sequence	binding result
TCTACGGTATGACGCCGCTGCATTATGTTAGTCAGCACAGAGAACGCACTGTCGCCTGATTTTTAACCTTAACGAAGAGCTATATTAATAACGGCATCAGCGATAACCCGGTCGATAATAATTCAACTATCGAATGCAGGCGTATGATATGACGTAATTTATTGTCACGAAGCTCGCCTTCGCAGGAGTTTAATT (double strand) [PadiC (adiC promoter)]	binds more weakly
TGCTTACCCGGTTATGAAGGAATCTTCGTTGCGGGCAAGTATCTTCCGGCCTTTTCGGGCTGTAAAGCGCGTGAAAAACAAACATTTTTGAAATATTTAGTTTTATAAACAATACGTTATGTGATTATTTTAAATTATTTTCACTGCTTATTATCGACGGCTAAACTATTTTTTTGGCTGATACTGATATCGTCT (double strand) [PadiA (adiA promoter)]	binds more weakly

For at least one entry, the source does not settle the construct or the ends of the probe. Weaker means in comparison with the reference protein, sequence or condition of that experiment. Protein sequences can lack the tags named with them.
